# This is one part of the list.
# Experiments:
# Test in all cases: glycan array binding signal (z-score within array); higher = stronger binding
# Settings in all cases: glycan notation: IUPAC condensed, linker removed
# [1] = target: Fuc(a1-2)Gal(b1-4)GlcNAc(b1-3)Gal(b1-4)GlcNAc(b1-2)Man(a1-3)[Fuc(a1-2)Gal(b1-4)GlcNAc(b1-3)Gal(b1-4)GlcNAc(b1-2)Man(a1-6)]Man(b1-4)GlcNAc(b1-4)GlcNAc
# Summary of the method: (§1)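 The binding signal is a Z-score computed within each array and averaged over linkers. Arrays of the same protein sequence at different concentrations or buffers were also averaged together. Data originate from 3228 arrays in the Consortium for Functional Glycomics database, kept only where the protein sequence was available.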
# [2] = target: Fuc(a1-2)Gal(b1-4)GlcNAc(b1-3)Gal(b1-4)GlcNAc(b1-3)Gal(b1-4)GlcNAc
# Summary of the method: as §1
# [3] = target: Fuc(a1-2)Gal(b1-4)GlcNAc(b1-3)GalNAc
# Summary of the method: as §1
# [4] = target: Fuc(a1-2)Gal(b1-4)GlcNAc(b1-3)[Fuc(a1-2)Gal(b1-4)GlcNAc(b1-6)]GalNAc
# Summary of the method: as §1
# [5] = target: Fuc(a1-2)Gal(b1-4)GlcNAc(b1-3)[Fuc(a1-3)[Gal(b1-4)]GlcNAc(b1-6)]Gal(b1-4)Glc
# Summary of the method: as §1
# [6] = target: Fuc(a1-2)Gal(b1-4)GlcNAc(b1-6)GalNAc
# Summary of the method: as §1
# [7] = target: Fuc(a1-2)Gal(b1-4)GlcNAc6S
# Summary of the method: as §1
# [8] = target: Fuc(a1-2)Gal(b1-4)[Fuc(a1-3)]GlcNAc
# Summary of the method: as §1
# [9] = target: Fuc(a1-2)Gal(b1-4)[Fuc(a1-3)]GlcNAc(b1-2)Man(a1-3)[Fuc(a1-2)Gal(b1-4)[Fuc(a1-3)]GlcNAc(b1-2)Man(a1-6)]Man(b1-4)GlcNAc(b1-4)[Fuc(a1-6)]GlcNAc
# Summary of the method: as §1
# [10] = target: Fuc(a1-2)Gal(b1-4)[Fuc(a1-3)]GlcNAc(b1-2)[Fuc(a1-2)Gal(b1-4)[Fuc(a1-3)]GlcNAc(b1-4)]Man(a1-3)[Fuc(a1-2)Gal(b1-4)[Fuc(a1-3)]GlcNAc(b1-2)Man(a1-6)]Man(b1-4)GlcNAc(b1-4)GlcNAc
# Summary of the method: as §1
# [11] = target: Fuc(a1-2)Gal(b1-4)[Fuc(a1-3)]GlcNAc(b1-3)Gal(b1-4)[Fuc(a1-3)]GlcNAc
# Summary of the method: as §1
# [12] = target: Fuc(a1-2)Gal(b1-4)[Fuc(a1-3)]GlcNAc(b1-3)Gal(b1-4)[Fuc(a1-3)]GlcNAc(b1-3)Gal(b1-4)[Fuc(a1-3)]GlcNAc
# Summary of the method: as §1
# [13] = target: Fuc(a1-2)Gal(b1-4)[Fuc(a1-3)]GlcNAc(b1-3)GalNAc
# Summary of the method: as §1
# [14] = target: Fuc(a1-2)Gal(b1-4)[Fuc(a1-3)]GlcNAc(b1-3)[Neu5Ac(a2-6)Gal(b1-4)GlcNAc(b1-6)]Gal(b1-4)Glc
# Summary of the method: as §1
# [15] = target: Fuc(a1-2)Gal3S(b1-4)GlcNAc
# Summary of the method: as §1
# [16] = target: Fuc(a1-2)Gal6S(b1-3)GlcNAc
# Summary of the method: as §1
# [17] = target: Fuc(a1-2)Gal6S(b1-3)GlcNAc6S
# Summary of the method: as §1
# Fuc(a1-2)Gal6S(b1-4)Glc = target: Fuc(a1-2)Gal6S(b1-4)Glc
# Summary of the method: as §1
# [18] = target: Fuc(a1-2)Gal6S(b1-4)Glc6S
# Summary of the method: as §1
# Fuc(a1-2)[Gal(a1-3)]Gal = target: Fuc(a1-2)[Gal(a1-3)]Gal
# Summary of the method: as §1
# [19] = target: Fuc(a1-2)[Gal(a1-3)]Gal(b1-3)GalNAc
# Summary of the method: as §1
# [20] = target: Fuc(a1-2)[Gal(a1-3)]Gal(b1-3)GalNAc(b1-3)Gal(a1-4)Gal(b1-4)Glc
# Summary of the method: as §1
# [21] = target: Fuc(a1-2)[Gal(a1-3)]Gal(b1-3)GlcNAc
# Summary of the method: as §1
# [22] = target: Fuc(a1-2)[Gal(a1-3)]Gal(b1-3)GlcNAc(b1-2)Man(a1-3)[Fuc(a1-2)[Gal(a1-3)]Gal(b1-3)GlcNAc(b1-2)Man(a1-6)]Man(b1-4)GlcNAc(b1-4)GlcNAc
# Summary of the method: as §1
# [23] = target: Fuc(a1-2)[Gal(a1-3)]Gal(b1-3)GlcNAc(b1-2)Man(a1-3)[Fuc(a1-2)[Gal(a1-3)]Gal(b1-3)GlcNAc(b1-2)Man(a1-6)]Man(b1-4)GlcNAc(b1-4)[Fuc(a1-6)]GlcNAc
# Summary of the method: as §1
# [24] = target: Fuc(a1-2)[Gal(a1-3)]Gal(b1-3)GlcNAc(b1-3)GalNAc
# Summary of the method: as §1
# [25] = target: Fuc(a1-2)[Gal(a1-3)]Gal(b1-3)GlcNAc(b1-6)GalNAc
# Summary of the method: as §1
# [26] = target: Fuc(a1-2)[Gal(a1-3)]Gal(b1-4)Glc
# Summary of the method: as §1
# [27] = target: Fuc(a1-2)[Gal(a1-3)]Gal(b1-4)GlcNAc
# Summary of the method: as §1
# [28] = target: Fuc(a1-2)[Gal(a1-3)]Gal(b1-4)GlcNAc(b1-2)Man
# Summary of the method: as §1
binder,measurement,setting,value
"Tp0751, 83732 (protein) MSYYHHHHHHLESTSLYKKAGFQHGHVPPRRIPPHDTFGALPTAALPSNARDTAAHPSDTADNTSGSSTTTDPRSHGNAPPAPVGGAAQTHTQPPVQTAMRIALWNRATHGEQGALQHLLAGLWIQTEISPNSGDIHPLLFFDREHAEITFSRASVQEIFLVDSAHTHRKTVSFLTRNTAISSIRRRLEVTFESHEVIHVRAVEDVARLKIGSTSMWDGQYTRYHAGPASAPSP",glycan array binding signal (z-score),[1],1.32
same,glycan array binding signal (z-score),[2],0.072
same,glycan array binding signal (z-score),[3],-0.474
same,glycan array binding signal (z-score),[4],0.326
same,glycan array binding signal (z-score),[5],-0.376
same,glycan array binding signal (z-score),[6],-0.071
same,glycan array binding signal (z-score),[7],-0.549
same,glycan array binding signal (z-score),[8],0.263
same,glycan array binding signal (z-score),[9],0.919
same,glycan array binding signal (z-score),[10],-0.059
same,glycan array binding signal (z-score),[11],-0.214
same,glycan array binding signal (z-score),[12],0.013
same,glycan array binding signal (z-score),[13],0.182
same,glycan array binding signal (z-score),[14],-0.367
same,glycan array binding signal (z-score),[15],-0.72
same,glycan array binding signal (z-score),[16],-0.217
same,glycan array binding signal (z-score),[17],1.11
same,glycan array binding signal (z-score),Fuc(a1-2)Gal6S(b1-4)Glc,-0.154
same,glycan array binding signal (z-score),[18],-0.016
same,glycan array binding signal (z-score),Fuc(a1-2)[Gal(a1-3)]Gal,-0.156
same,glycan array binding signal (z-score),[19],0.425
same,glycan array binding signal (z-score),[20],-0.134
same,glycan array binding signal (z-score),[21],1.77
same,glycan array binding signal (z-score),[22],0.623
same,glycan array binding signal (z-score),[23],0.087
same,glycan array binding signal (z-score),[24],-0.668
same,glycan array binding signal (z-score),[25],0.819
same,glycan array binding signal (z-score),[26],0.399
same,glycan array binding signal (z-score),[27],0.066
same,glycan array binding signal (z-score),[28],-0.472
